{
  "source": "patent US20090275633A1",
  "about": "“Novel Tumour Suppressor” (ONCOMETHYLOME SCIENCES SA, priority 2006, published 2009)",
  "test_system": "colon cancer cell lines (RKO, Co115, HCT-116, SW48, LoVo)",
  "assay": "Cell viability (MTT assay) of colon cancer cell lines",
  "type": "cell-based, human",
  "conditions": "HDAC2-deficient RKO cells, 24 h with 5 mM SAHA",
  "description": "Cells were treated for 48 h with different concentrations of TSA (0-1000 nM). Experiments were performed in triplicate.\nFIG. 5. […] Experiments were performed in triplicate.\nHuman colorectal and endometrial cancer cell lines were obtained from the American Type Culture Collection. HDAC inhibition treatment was developed adding 0.25 μM trichostatin A, 10 mM sodium valproate or 10 mM sodium butyrate to the culture medium for 24 hours. We obtained DNA samples from 228 human primary malignancies corresponding to colon tumors of HPNCC patients (n=47) and sporadic MSI+colon (n=127), MSI-colon (n=40), gastric (n=38) and endometrial carcinomas (n=16), as well as normal colon tissue (n=6), at the time of clinically indicated surgical procedures. Normal lymphocytes from healthy donors (n=50) was also used. DNA was extracted using standard protocols.\nCell viability was determined as previously described5. Aliquots of 1.5×10^4 cells were plated in 96-well microdilution plates. Following overnight cell adherence, experimental media containing the drugs or control media was added to appropriate wells. After 48 hours, the media was replaced by drug-free fresh media (100 μl/well) containing MTT (50 μg). […] Absorbance at 570 nm was determined on an automatized microtiter plate reader.",
  "data": [
    {"smiles": "O=C(CCCCCCC(=O)Nc1ccccc1)NO", "note": "[SAHA, suberoylanilide hydroxamic acid]", "values": [
      {"measurement": "cell growth inhibition (cell viability, MTT assay)", "value": "enhanced resistance"},
      {"measurement": "cell growth inhibition (cell viability, MTT assay)", "setting": "listed as suberoylanilide hydroxamic acid (SAHA)", "value": "unable to efficiently inhibit cell growth"}
    ]}
  ]
}
